Among all 2,000 compounds or so, fewer than 10 were called active.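 Rule for the calls: active = growth inhibition of at least 75% in every replicate, which also brings the mean inhibition to 75% or more; inconclusive = mean inhibition 75% or more but some replicate under 75%; inactive = the rest.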 Some of the results follow.
Assay: growth inhibition of PfHsp90-dependent yeast, primary screen, antimalarial PfHsp90 inhibitor project, S. cerevisiae, BacTiter-Glo luminescence (AID 504594);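 note: 0% = DMSO neutral control wells and 100% = 20 µM radicicol control wells; higher value means stronger growth inhibition because the sign is flipped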
Settings: S. cerevisiae expressing PfHsp90, BacTiter-Glo growth, 48 h; at 9.4 µM; stronger effect = higher value

Growth inhibition, inactive:
CC(=O)OCC(=O)[C@@]12OC3(CCCC3)O[C@@H]1C[C@H]1[C@@H]3CCC4=CC(=O)C=C[C@]4(C)[C@@]3(F)[C@@H](O)C[C@@]12C -4.08%
CCCC(=O)Nc1ccc(OCC(O)CNC(C)C)c(C(C)=O)c1 (configuration not stated) 2.39%
CCn1c(C)cc2c(c1=O)C(c1ccccc1)C(C(=O)OC)=C(N)O2 (configuration not stated) -22%
NC(=O)c1c(-c2ccccc2)oc2ccc(O)cc12 15.6%
COc1ccc(C2C3CCCCC3(O)CCN2C(=O)c2cccs2)cc1 (configuration not stated) 13.6%
O=c1c(-c2ccccc2)c(O)c2cccc3c2n1CCC3 -4.59%
COc1ccc(C2=NOC(COc3ccc4c(C)cc(=O)oc4c3)C2)c(OC)c1 (configuration not stated) -0.922%
C#CCN1C(=O)C(O)(CC(=O)c2ccc(OC)c(OC)c2)c2ccccc21 (configuration not stated) 2.67%
CCCCC1C(=O)N(c2ccccc2)N(c2ccccc2)C1=O 1.62%
COc1ccccc1/C=C/C(=O)OCCN1CCOCC1 6.29%
COc1ccc(S(=O)(=O)NC(Cc2cnc[nH]2)C(=O)O)cc1 (configuration not stated) -8.95%
CN(C)CCOc1ccccc1Cc1ccccc1 4.61%
CC1/C(=C\c2ccc(Cl)cc2)C(=O)C2CC1C2(C)C (configuration not stated) -4.13%
CC1=CC(=O)c2ccccc2C1=O -4.75%
CCOc1ccc(C(NC(C)=O)c2ccc(OC)c(OC)c2)cc1 (configuration not stated) -1.83%
CC1(c2ccccc2)CC(C)(C)N2C(=O)C(=O)c3cccc1c32 (configuration not stated) -3.23%
CCOc1ccc2nc(N/C(N)=N/S(C)(=O)=O)nc(C)c2c1 2.51%
CC[C@]1(O)C[C@@H]2CN(CCc3c([nH]c4ccccc34)[C@@](C(=O)OC)(c3cc4c(cc3OC)N(C)[C@H]3[C@@](O)(C(=O)OC)[C@H](OC(C)=O)[C@]5(CC)C=CCN6CC[C@]43[C@@H]65)C2)C1 1.01%
CN(C)CCOC(c1ccccc1)c1ccccc1 (tested in a mixture with another compound) 4.07%
CCN(CCCc1ccccc1)CCCc1ccccc1 -1.49%
COc1ccc(C2c3c(n[nH]c3C)CC(C)(O)C2C(C)=O)cc1OC (configuration not stated) 7.08%
CC12CCC(C(=O)N(CCC#N)CCC#N)(CC1=O)C2(C)C (configuration not stated) -0.835%
Nc1ccc(N=Nc2ccccc2)c(N)n1 3.56%
CCN(CC)C(=O)N1CCN(C)CC1 -2.34%
CC(C)COc1ccc(Cc2cnc(N)nc2N)cc1 -8.61%
COc1ccc(C2NC(=O)c3ccccc3O2)c(OC)c1OC (configuration not stated) -13.1%
O=C1CCCN1C(=O)CCC(=O)N1CCCC1=O -0.847%
Cc1cccc2c(C(=O)O)cc(-c3cccnc3)nc12 -1.78%
O=C(O)CCCCCNC(=O)Nc1ccc2c(c1)OCCO2 4.34%
O=C(CC(NC(=O)OCc1ccccc1)C(=O)O)OCc1ccccc1 (configuration not stated) 0.482%
CC(C)(C)C(=O)NC(=S)Nc1sc2c(c1C(N)=O)CCC2 -6.01%
COC(=O)C1=C(C)N(Cc2ccco2)C(=O)/C1=C\c1ccc([N+](=O)[O-])cc1 5.82%
Cc1ccc(S(=O)(=O)N[C@@H](C)C(=O)N2CCC(C(=O)N3CCC[C@H]3C(=O)O)CC2)cc1 10.6%
CC1(C)Cc2ccccc2-c2nc(-c3ccccc3)oc(=O)c21 4.05%
COc1c(C=O)c(CCN(C)C(=O)c2ccc(F)cc2)cc2c1OCO2 5.71%
CCOCCCNCc1cn(-c2ccc(F)cc2F)nc1-c1ccccc1C 5.3%
CCOC(=O)c1cccc(P(C)(C)=O)c1 4.89%
C=CC1=C(C(=O)O)N2C(=O)C(NC(=O)Cc3ccccc3)C2SC1 (configuration not stated) -7.86%
C=CCc1ccccc1OCC(O)CNC(C)C (configuration not stated) -1.09%
O=C(Cc1ccccc1)NNC(=O)Cc1ccccc1 7.69%
CCCCOc1ccc(CC(=O)NO)cc1 0.384%
CC(=O)OC(C)C[N+](C)(C)C (configuration not stated) -2.62%
Cc1ccccc1OCC(O)CN1CCN(C)CC1 (configuration not stated) 2.9%
CC(=O)Nc1ccccc1C(=O)C(=O)Nc1ccccc1 -9.27%
N/C(=N\OC(=O)/C=C/c1ccccc1)c1ccc(Br)cc1 -17.8%
CN(C)CCC(c1ccccc1)c1ccccn1 (configuration not stated) -2.07%
Nc1ccc2nc(Cc3ccccc3)[nH]c2c1 -24.9%
CC1(C)C(=O)OC(C(=O)c2ccc(Cl)cc2)C(C)(C)C1=O (configuration not stated) -6.03%
O=C(O)CCCCCCNC(=O)c1cncc(O)c1 -1.83%
OCCC1CN(Cc2ccccc2-c2ccco2)CCN1C1CCCC1 (configuration not stated) -5.78%
Cc1ccc2c(c1)C(O)(c1c(C)[nH]c3ccccc13)C(=O)N2 (configuration not stated) -6.8%
COc1ccccc1C(CC(=O)Nc1ccccc1C)c1ccc(OC(C)C)cc1 (configuration not stated) -19.3%
COc1ccc(CCNC(=S)NC(=O)/C=C/c2ccc(C)cc2)cc1OC -2.36%
O=c1nc2n(c3c1oc1ccccc13)Cc1ccccc1-2 -0.595%
COc1cc(C2C(C(=O)c3ccc(C)o3)=C(O)C(=O)N2Cc2cccnc2)ccc1O (configuration not stated) -7.55%
CC(=O)Oc1c2occc2cc2ccc(=O)oc12 -1.02%
O=C1Nc2ccc3sc4ccccc4c3c2C1=O -1.28%
COc1ccccc1NC(=O)N1CCc2[nH]c3ccc(Cl)cc3c2C1 -18.9%
NC(=O)c1cccnc1 12.6%
CO/N=C(\C(=O)N[C@@H]1C(=O)N2C(C(=O)O)=C(COC(C)=O)CS[C@H]12)c1csc(N)n1 (stereo in doubt) -4.72%
O=C(O)C1CSC(c2ccc3c(c2)OCO3)N1 (configuration not stated) 2.51%
CC12CCCCN1CCCc1c2[nH]c2ccccc12 (configuration not stated) -0.243%
Cn1c(=O)c2c(ncn2CC(O)CO)n(C)c1=O (configuration not stated) -8.06%
COc1cccc(N2C(=O)CC(c3c[nH]c4ccccc34)C2=O)c1 (configuration not stated) -3.63%
N=C1C(c2ccccc2)=C(O)CN1CCCO -10.9%
COC(=O)CN1CC(=O)N(c2ccccc2)C1=S 17.3%
CCCCC[C@H](O)/C=C/[C@@H]1[C@@H](CCCCCCC(=O)O)[C@@H](O)C[C@H]1O -9.31%
O=C(/C=C/Sc1ccccc1)c1ccccc1 61.1%
C=CCC1(O)C(=O)N2C(=C1C(=O)N1CCOCC1)c1ccccc1CC2(C)C (configuration not stated) 0.738%
Cc1c(OC(=O)CNC(=O)OC(C)(C)C)ccc2c3c(c(=O)oc12)CCC3 -3.7%
CCOC(=O)C1=C(C)NC(C)=C(C(=O)OC)C1c1cccc([N+](=O)[O-])c1 (configuration not stated) 2.38%
CC(=Nc1ccccc1)C1=C(O)CCCC1=O -4.54%
O=c1c(C(c2ccccc2)c2c(O)sc3ccccc3c2=O)c(O)sc2ccccc12 -8.88%
CN(CCc1cnn(C)c1)Cc1nc(CC2CC2)no1 19.2%
Cc1ccc(N2C(=O)c3ccccc3C2=O)cc1C -0.638%
CCOC(=O)c1ccc2[nH]c(C)c(CCC(C)=O)c(=O)c2c1 6.85%
O=C(NCCc1c[nH]c2ccccc12)OCCSS(=O)(=O)O -7.25%
CCn1cc(C(=O)O)c(=O)c2cc(F)c(N3CCNCC3)cc21 -0.253%
Cc1ccc(C(=O)O)cc1NC(=O)c1cccs1 -2.47%
CC1(C)CC(=O)c2cn3c(nc2C1)nc1ccccc13 -5.82%
Cc1ccc(OCCSc2ncccn2)c(C)c1 -4.3%
O=C(Cc1ccccc1[N+](=O)[O-])NCc1ccncc1 15%
Cc1cc(OCC(=O)C(C)(C)C)c2c(C)c(C)c(=O)oc2c1 -4.06%
CCOC(=O)c1c(O)c2c([nH]c1=O)CCCC2 -2.33%
O=C(N/C(=C/C=C\c1ccccc1)C(=O)N1CCOCC1)c1ccc(Br)cc1 -2.33%
CC(CN1c2ccccc2Sc2ccccc21)N(C)C (configuration not stated) -11.1%
COc1ccc(NC(=O)N2CCCCC2c2cccnc2)cc1 (configuration not stated) 24.9%
NS(=O)(=O)c1cc2c(cc1C(F)(F)F)NC(Cc1ccccc1)NS2(=O)=O (configuration not stated) 0.054%
COc1ccc([C@H]2[C@H](C(=O)OC(C)(C)C)N3N=Cc4ccccc4C3C23C(=O)c2ccccc2C3=O)cc1OC (some centres not stated) 3.63%
COc1cc(C(=S)N(C)C)ccc1O -4.93%
CCn1c(N2CCN(CC(=O)c3c(C)n(C)c4ccc(OC)cc34)CC2)nc2c1c(=O)[nH]c(=O)n2C -0.0085%
COc1ccc(C(=O)OCc2cc3cccc(C)c3[nH]c2=O)cc1 -1.4%
COCc1cc(=O)[nH]c(/N=C(\N)Nc2ccc(Oc3ccccc3)cc2)n1 -12.9%
N/C(=N\OC(=O)CCCOc1ccc(Cl)cc1Cl)c1ccncc1 -2.92%
CCOc1cc2c3c(c1)C(C)=CC(C)(C)N3C(=O)C2=O -0.287%
CC1(C)CC(=O)C(C2=NC(C)(C)Cc3ccccc32)=C(O)C1 1.05%
O=C1CCCCCN1Cc1ccccc1 -10.2%

A draw from above in order of count of non-hydrogen atoms, rising.
Growth inhibition, inactive:
Cn1c(=O)c2c(ncn2CC(O)CO)n(C)c1=O (configuration not stated) -8.06%
O=C(O)CCCCCNC(=O)Nc1ccc2c(c1)OCCO2 4.34%
C=CC1=C(C(=O)O)N2C(=O)C(NC(=O)Cc3ccccc3)C2SC1 (configuration not stated) -7.86%
COC(=O)C1=C(C)N(Cc2ccco2)C(=O)/C1=C\c1ccc([N+](=O)[O-])cc1 5.82%

— PubChem BioAssay AID504594 (Broad Institute, 2011)
